The values that follow come from patent US20250075147A1, “FRAGRANCE AND FLAVOR COMPOSITIONS COMPRISING NEW FLAVOR AND FRAGRANCE INGREDIENTS” (priority 2023, published 2025).

Each structure is given as a SMILES string.

Series [1] in a line: Evaluation by trained and/or certified flavor or fragrance chemists or master perfumers; categorization by commercial prospect. The settings on record: for Rating (category of commercial prospect): evaluation by trained flavor or fragrance chemists or master perfumers; for Rating: category of commercial prospect, (A) highest > (B) > (C) > (D) lowest, (E) requires further study.

Another series deals with odor evaluation panel. In words: Odor evaluation panel rating of odorants by Rate-All-That-Apply (RATA) method with 55-word odor lexicon, plus intensity and pleasantness. Details: species or system human. The settings on record: for Floral: mean panelist score for odor label floral (RATA); for Fruity: mean panelist score for odor label fruity (RATA); for Spicy: mean panelist score for odor label spicy (RATA); for Sweet: mean panelist score for odor label sweet (RATA); for Pleasantness: mean panelist score for odor pleasantness.

As for `CNC1CCN(Cc2ccccc2)C1` (stereo not drawn) [Compound 784, 1-benzyl-N-methylpyrrolidin-3-amine], the “Rating (category of commercial prospect)” value in series [1] is listed as “(C)”. Also, in the series with odor evaluation panel, the Floral is on record as 0.062, the Fruity was 0.031, the Spicy was 0.094 and the Sweet was 0.219. Also, the Pleasantness in the series on odor evaluation panel stood at 4.266.
On to `CC(=O)c1cccc(C#N)c1` [Compound 121, 3-acetylbenzonitrile], for which the Rating result in series [1] is on record as “(C)”. In addition, in the series on odor evaluation panel, the Floral was determined as 0.486, the Fruity is on record as 0.229, the Spicy is listed as 0.314 and the Sweet was 1.029. Also, the Pleasantness in the series on odor evaluation panel was 4.283.
Consider `CCC(=O)c1cccc(O)c1` [Compound 634, 1-(3-hydroxyphenyl)propan-1-one], for which the “Rating (category of commercial prospect)” value in series [1] is “(A)”. Moreover, in the series on odor evaluation panel, the Floral came out at 0.226, the Fruity was found to be 0.323, the Spicy stood at 0.161 and the Sweet came out at 0.71. Besides, in the series on odor evaluation panel, the Pleasantness was determined as 4.326.
For `CC(CCN(C)C)N(C)C` (stereo not drawn) [Compound 185, N,N,N,N-tetramethylbutane-1,3-diamine], the Rating entry in series [1] is reported as “(D)”. Moreover, in the series with odor evaluation panel, the Floral was found to be 0.097, the Fruity is recorded as 0.065, the Spicy is 0 and the Sweet was determined as 0.097. In addition, the Pleasantness in the series on odor evaluation panel is 2.529.
In the case of `COC(=O)c1ccc[nH]1` [Compound 526, methyl 1H-pyrrole-2-carboxylate], the Rating entry in series [1] is given as “(D)”. In the series on odor evaluation panel, the Floral worked out at 0.5, the Fruity worked out at 0.812, the Spicy was found to be 0.438 and the Sweet was found to be 1.781. Besides, the Pleasantness in the series with odor evaluation panel is listed as 6.016.
In the case of `Cc1cn[nH]c1C` [Compound 713, 4,5-dimethyl-1H-pyrazole], the “Rating (category of commercial prospect)” value in series [1] is “(C)”. In the series on odor evaluation panel, the Floral is 0.057, the Fruity is 0.029, the Spicy is 0.029 and the Sweet was 1. The Pleasantness in the series on odor evaluation panel was 4.354.
